Measurements from patent publication EP0802900B1, “ANTIARRHYTHMIC (S)-ENANTIOMERS OF METHANESULFONAMIDES” (priority 1995, dated 1996).

Tested on: methoxamine treated rabbits
Assay: Early after depolarizations (EAD) and polymorphic ventricular tachycardia (PVT) in methoxamine treated anesthetized rabbits
Format: in vivo, New Zealand White rabbits
Details: for Total accumulated dose of test compound when the maximum MAPD90 increase was measured: value in parentheses in MAPD90 column; for Total accumulated dose of test compound when the maximum QTc increase was measured: value in parentheses in QTc column
Experimental: The Formula I compounds were evaluated for their ability to produce early after depolarizations (EAD) and polymorphic ventricular tachycardia (PVT) in methoxamine treated rabbits. The method used was as follows:
Male New Zealand White rabbits (2.5 - 3.5 kg,) were pretreated with subcutaneous morphine sulfate (5 mg/kg) 30 minutes prior to anesthesia. Anesthesia was induced by infusion of α-chloralose (90 - 120 mg/kg) through a marginal ear vein over a period of 20 to 30 minutes. A tracheotomy was performed and the rabbit was respirated with room air (5 - 6 cc/kg) using a small animal ventilator (Columbus Instruments, Columbus, OH). Respiration rate, and tidal volume were adjusted, and supplemental oxygen administered to maintain arterial blood gases and pH within normal physiologic ranges. Catheters were placed in a jugular vein and carotid artery for administration of drugs, and measurement of arterial blood pressure, respectively. A 4 French monophasic action potential catheter was introduced through a jugular vein for monitoring of right ventricular monophasic action potential duration which was measured at 90% repolarization (MAPD90), A lead II ECG and arterial blood pressure were monitored throughout the experiments.
All records were obtained on a multichannel recorder (Gould ES 2000, Cleveland, OH) and experiments were continuously recorded on FM magnetic tape (TEAC 501, Montebello, CA) for subsequent playback and analysis.
Following experimental preparation, the rabbits were allowed to equilibrate for 10 minutes before baseline measurements of heart rate, aortic blood pressure, and QTc interval were made. During the equilibration period, monophasic action potentials were monitored and the catheter adjusted to produce action potentials with a stable amplitude. Following baseline measurements, the α1 agonist methoxamine was infused at a rate of 10 µg/kg/minute at an infusion volume of 12.0 ml/hr. After 15 minutes of methoxamine administration, intravenous infusion of saline (vehicle control) or a class III agent was begun. All agents were administered as a continuous infusion over a 1 hour period. Measurement of heart rate, aortic blood pressure. QTc interval (as defined below), and MAPD90 were repeated at several time points during drug administration to provide dose-response relationships. QTc and MAPD90 were also monitored to insure that maximal class III effects on these parameters had been achieved.
Total accumulated dose at the first incidence of PVT was also measured. Repolarization arrhythmias were characterized as early after depolarizations and extrasystoles during repolarization which produced extrasystoles in lead II ECG. PVT was considered to have occurred if 3 or more closely coupled repetitive extrasystoles with a twisting or torsioning QRS morphology were observed.
QT intervals were corrected for heart rate changes using the formula QTc = QT/square root R-R interval. EADs were compared between treatment groups at stable monophasic action potential amplitudes (APA) and are reported as a percent of the APA.
Examples of Formula I compounds evaluated in this manner are collected in Table II. A measure of Class III antiarrhythmic activity is indicated by an increase in QTc and MAPD90. The proarrhythmic potential is indicated by the incidence and magnitude of the EADs and by the ratio of the incidence of PVT to the total number of animals tested. The corresponding data for ibutilide, a compound of U.S. Patent 5,155,268, and the racemc forms Examples (R.S) (compounds of PCT WO 91/01299) are shown for comparison.

| Molecule | Total accumulated dose of test compound when the maximum MAPD90 increase was measured | Total accumulated dose of test compound when the maximum QTc increase was measured |
| --- | --- | --- |
| CCN(CCCCCCCF)CCCC(O)c1ccc(NS(C)(=O)=O)cc1 (racemic) [(R,S) 1] | 1 mg/kg | 0.5 mg/kg |
| CCN(CCCCCC(C)F)CCCC(O)c1ccc(NS(C)(=O)=O)cc1 (racemic) [(R,S) 2] | 0.25 mg/kg | 0.25 mg/kg |
| CCN(CCCCCC(C)(C)F)CCCC(O)c1ccc(NS(C)(=O)=O)cc1 (racemic) [(R,S) 3] | 1 mg/kg | 0.25 mg/kg |
| CCN(CCCCCC(C)(C)F)CCC[C@H](O)c1ccc(NS(C)(=O)=O)cc1 [Example 3, (S)-(-)-N-[4-[4-[Ethyl(6-fluoro-6-methylheptyl)amino]-1-hydroxybutyl]phenyl]-methanesulfonamide] | 3 mg/kg | 1 mg/kg |
| CCCCCCCN(CC)CCCC(O)c1ccc(NS(C)(=O)=O)cc1 (centres unmarked) [Ibutilide, ibutilide] | 10 mg/kg | 10 mg/kg |
| (S)-(-)-N-[4-[4-[Ethyl(6-fluoroheptyl)amino]-1-hydroxybutyl]phenyl]methanesulfonamide, (E)-2-Butenedioate (2:1 salt) [Example 2] | 1 mg/kg | 0.25 mg/kg |
| (S)-(-)-N-[4-[4-[Ethyl(7-fluoroheptyl)amino]-1-hydroxybutyl]phenyl] methanesulfonamide, (E)-2-Butenedioate (2:1 salt) [Example 1] | 1 mg/kg | 1 mg/kg |
